In assay [1] the target is T1, HA-tagged syndecan-4 full length (UniProt O35988).
T1 sequence: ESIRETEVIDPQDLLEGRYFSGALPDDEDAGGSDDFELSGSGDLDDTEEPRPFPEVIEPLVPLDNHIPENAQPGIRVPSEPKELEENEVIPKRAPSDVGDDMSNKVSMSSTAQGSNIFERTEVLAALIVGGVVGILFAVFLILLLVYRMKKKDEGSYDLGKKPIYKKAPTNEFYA
Nature of the assay: co-IP; lysates of HEK-293 cells co-transfected with syndecan-4 and CnA, in presence of 1.5 mM CaCl2; immunoprecipitation with anti-syndecan-4 or with anti-CnA, protein A/G agarose; washed three times in lysis buffer (20 mM Hepes pH 7.5, 150 mM NaCl, 1 mM EDTA, 0.5% Triton); immunoblot.

Assay [2] has as its target T2, endogenous syndecan-4 in left ventricular tissue (mouse (endogenous in LV tissue)) (UniProt O35988).
T2 sequence: T1 sequence
Nature of the assay: co-IP; LV extracts (500 µg tissue extract A) from WT mice 24 h after SHAB or AB; anti-syndecan-4 or control IgG with protein A/G agarose overnight at 4°C; washes in IP-buffer and IP-buffer with high salt (1 M); immunoblot for PKC-α, CnA and calmodulin.

For assay [3], the target named is T3, Biotinylated-pS179-syndecan-4 (biotinylated phosphopeptide spanning the cytoplasmic part of syndecan-4).
T3 sequence (peptide, phosphoserine at 179 (pS); biotin on the N-terminus): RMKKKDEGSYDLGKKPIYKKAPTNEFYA
Nature of the assay: pull-down; biotinylated peptides (5 µM) incubated in total heart extract (tissue lysate B) from WT mice overnight at 4°C; anti-biotin-conjugated beads 60 min; washes in IP-buffer and IP-buffer with high salt (1 M); immunoblot for endogenous CnA and PKC-α; only the target purified.

In assay [4] the target is T4, Biotinylated-syndecan-4 (biotinylated peptide spanning the cytoplasmic part of syndecan-4, residues 171-198).
T4 sequence (peptide, biotin on the N-terminus): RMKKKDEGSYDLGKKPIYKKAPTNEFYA
The description is as above.

Assay [5] addresses His-tagged CnAα (calcineurin A alpha) (UniProt P63328). As to the kind of experiment: co-IP; lysates of HEK-293 cells co-transfected with syndecan-4 and CnA, in presence of 1.5 mM CaCl2; immunoprecipitation with anti-syndecan-4 or with anti-CnA, protein A/G agarose; washed three times in lysis buffer (20 mM Hepes pH 7.5, 150 mM NaCl, 1 mM EDTA, 0.5% Triton); immunoblot.

No constants are given. Whether binding was seen depends on the method and setting. Binding seen in cells or lysates may run through a third protein. Some binding calls cover weakened binding; strength is not graded here. For some assays here: Where a sequence is shown, tags or fusion partners need not be part of it.

With “His-tagged CnAα (calcineurin A alpha) (from UniProt P63328 1-521) (enzyme)”, the binding entry in assay [1] was “binds”.
For the molecule “endogenous PKC-α in left ventricular tissue (from UniProt P20444 1-672) (enzyme)”, the binding entry in assay [2], in assay [3] and in assay [4] was “binds” throughout.

B1: HA-tagged syndecan-4 full length (receptor, UniProt O35988 24-198)
chain: T1 sequence
Turning to B1, the binding result in assay [5] is reported as “binds”.
